test: peptide synthesis; conditions: conjugation step

Substance	conjugation yield [%]
Arylazide-PEG11-LPETGG	59
BCN-LPETGG	72
BCN-PEG12-LPETGG	63
BCN-PEG24-LPETGG	62
Tetrazine-PEG3-LPETGG	91

Source: US20230190951A1 (SYNAFFIX B.V., priority 2020, published 2023)
